Measured values as given in the supplement of paper PMC12425257.
Some of the results follow.

These molecules were tested on Madurella mycetomatis MM55.
Description: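 Kinase Chemogenomic Set (KCGS 2.0) screened against Madurella mycetomatis MM55 hyphal suspension in RPMI + L-glutamine + MOPS in 384-well plates, 4 days at 37°C, 5% CO2. CellTiter-Glo 3D luminescence gives metabolic activity as % of the DMSO growth control after subtracting the medium-only negative control. Screened at 1, 2 and 10 µM in two biological replicates (A/B); hits (>=80% reduction in both replicates) were also tested at 4 and 8 µM, and their IC50 was read visually from the dose curve, in duplicate.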

SMILES | IC50 growth inhibition
CNC(=O)c1nn(C)c2c1C(C)(C)Cc1cnc(Nc3ccc(N4CCOCC4)cc3OC)nc1-2 | 7.81 µM
Cc1cccc(-c2nc(Nc3ccncc3)c3ccccc3n2)n1 | 7.9 µM
CCc1nc(-c2cccc(C)c2)c(-c2ccncc2)s1 | 4.79 µM
Fc1ccc(-c2nn3ccccc3c2-c2ccncc2)cc1 | 3.84 µM
Cc1cccc(-c2nc3cnccn3c2-c2ccnc(NC3CCCCC3)n2)c1 | 7.89 µM
Nc1nccc(-c2c(-c3ccc(F)cc3)ncn2C2CCN(Cc3ccccc3)CC2)n1 | 5.79 µM

Nothing new here: an excerpt of the list.
SMILES | IC50 growth inhibition
Cc1cccc(-c2nc(Nc3ccncc3)c3ccccc3n2)n1 | 7.9 µM
CCc1nc(-c2cccc(C)c2)c(-c2ccncc2)s1 | 4.79 µM
